According to article PMC12607013:
No constants are given. Whether binding was seen depends on the method and setting. In cells and extracts the contact can be indirect. Some binding calls cover weakened binding; strength is not graded here. For some assays here: Tags and fused reporters may be left off the sequences shown.

Tests used:
[1] = molecular target: T1, OTUD4 N-terminal OTU domain (aa 1–180) (human) (UniProt Q01804); test: co-IP; HEK293T cells transfected with the indicated plasmids, 48 to 72 h; clarified lysates incubated overnight at 4 °C with anti-FLAG M2-agarose or anti-HA-agarose beads; Western blot
T1 sequence: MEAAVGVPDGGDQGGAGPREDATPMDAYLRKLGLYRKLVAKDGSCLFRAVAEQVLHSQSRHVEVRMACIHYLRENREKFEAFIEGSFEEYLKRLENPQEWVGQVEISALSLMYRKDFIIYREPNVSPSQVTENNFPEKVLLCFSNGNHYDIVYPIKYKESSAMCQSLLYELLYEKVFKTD

[2] = molecular target: T2, FLAG-tagged full-length OTUD4 H148Y (tumor-associated variant) (human) (UniProt Q01804); test: as above
T2 sequence: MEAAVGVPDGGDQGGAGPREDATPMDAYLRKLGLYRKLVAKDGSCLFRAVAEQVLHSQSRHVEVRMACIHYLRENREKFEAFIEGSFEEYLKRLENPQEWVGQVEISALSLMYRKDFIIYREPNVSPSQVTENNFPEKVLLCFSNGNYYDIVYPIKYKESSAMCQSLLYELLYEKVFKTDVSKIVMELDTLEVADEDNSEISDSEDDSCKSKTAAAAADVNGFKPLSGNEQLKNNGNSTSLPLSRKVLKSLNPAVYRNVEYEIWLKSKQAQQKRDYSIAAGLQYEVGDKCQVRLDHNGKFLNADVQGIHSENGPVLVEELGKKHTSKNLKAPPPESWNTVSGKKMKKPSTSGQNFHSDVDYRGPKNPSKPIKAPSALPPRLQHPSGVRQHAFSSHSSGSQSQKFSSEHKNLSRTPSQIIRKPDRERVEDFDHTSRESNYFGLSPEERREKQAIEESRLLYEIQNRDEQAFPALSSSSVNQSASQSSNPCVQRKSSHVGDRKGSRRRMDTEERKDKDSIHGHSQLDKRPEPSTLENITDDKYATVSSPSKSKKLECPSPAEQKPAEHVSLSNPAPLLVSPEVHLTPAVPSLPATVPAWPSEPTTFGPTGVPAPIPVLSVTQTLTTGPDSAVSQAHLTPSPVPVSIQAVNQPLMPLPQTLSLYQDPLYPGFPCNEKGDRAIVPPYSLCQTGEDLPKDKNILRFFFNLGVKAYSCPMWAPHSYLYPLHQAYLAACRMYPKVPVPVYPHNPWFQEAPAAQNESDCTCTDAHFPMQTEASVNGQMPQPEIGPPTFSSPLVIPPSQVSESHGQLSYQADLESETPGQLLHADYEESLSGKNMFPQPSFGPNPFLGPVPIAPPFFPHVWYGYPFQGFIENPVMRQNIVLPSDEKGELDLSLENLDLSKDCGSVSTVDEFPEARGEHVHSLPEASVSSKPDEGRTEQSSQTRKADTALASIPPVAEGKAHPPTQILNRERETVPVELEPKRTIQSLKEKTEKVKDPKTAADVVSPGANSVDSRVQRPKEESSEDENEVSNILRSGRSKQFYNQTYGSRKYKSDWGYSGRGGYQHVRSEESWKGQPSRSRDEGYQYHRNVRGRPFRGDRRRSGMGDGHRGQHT

[3] = molecular target: T3, FLAG-tagged full-length OTUD4 (ovarian tumor family deubiquitinase 4), WT (human) (UniProt Q01804); test: as above
T3 sequence: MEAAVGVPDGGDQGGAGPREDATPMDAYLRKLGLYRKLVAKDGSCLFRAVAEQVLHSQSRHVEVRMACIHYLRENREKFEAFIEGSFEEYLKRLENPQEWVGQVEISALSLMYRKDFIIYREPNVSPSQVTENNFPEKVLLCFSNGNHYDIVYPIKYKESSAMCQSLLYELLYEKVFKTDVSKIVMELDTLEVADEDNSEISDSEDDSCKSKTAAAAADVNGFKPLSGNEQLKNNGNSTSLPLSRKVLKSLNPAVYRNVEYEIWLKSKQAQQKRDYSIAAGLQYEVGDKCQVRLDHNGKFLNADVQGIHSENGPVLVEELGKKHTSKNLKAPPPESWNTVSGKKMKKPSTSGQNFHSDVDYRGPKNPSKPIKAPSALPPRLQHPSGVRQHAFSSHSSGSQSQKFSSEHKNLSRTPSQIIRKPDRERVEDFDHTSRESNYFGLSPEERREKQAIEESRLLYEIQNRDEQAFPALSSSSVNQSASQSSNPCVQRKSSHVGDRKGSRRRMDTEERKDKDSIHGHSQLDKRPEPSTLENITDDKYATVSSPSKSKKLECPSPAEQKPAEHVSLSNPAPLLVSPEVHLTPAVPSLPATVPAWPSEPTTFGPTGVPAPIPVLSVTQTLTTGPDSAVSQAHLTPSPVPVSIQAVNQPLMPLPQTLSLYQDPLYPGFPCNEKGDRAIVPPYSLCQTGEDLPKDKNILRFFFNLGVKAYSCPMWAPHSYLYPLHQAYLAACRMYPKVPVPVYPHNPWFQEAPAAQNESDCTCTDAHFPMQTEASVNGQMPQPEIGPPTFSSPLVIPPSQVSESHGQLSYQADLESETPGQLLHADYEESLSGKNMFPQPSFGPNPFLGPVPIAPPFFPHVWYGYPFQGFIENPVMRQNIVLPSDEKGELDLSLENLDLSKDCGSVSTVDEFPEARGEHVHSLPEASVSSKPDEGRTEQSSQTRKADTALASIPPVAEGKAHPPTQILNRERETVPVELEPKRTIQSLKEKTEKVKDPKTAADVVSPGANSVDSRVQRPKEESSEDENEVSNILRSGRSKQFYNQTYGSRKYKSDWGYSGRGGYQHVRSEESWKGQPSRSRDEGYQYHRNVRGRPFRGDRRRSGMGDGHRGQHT

[4] = molecular target: T4, endogenous OTUD4 in H1299 NSCLC cells (human (endogenous in H1299)) (UniProt Q01804); test: co-IP; endogenous proteins in H1299 NSCLC cells; reciprocal co-IP with antibodies to OTUD4 and to TAK1
T4 sequence: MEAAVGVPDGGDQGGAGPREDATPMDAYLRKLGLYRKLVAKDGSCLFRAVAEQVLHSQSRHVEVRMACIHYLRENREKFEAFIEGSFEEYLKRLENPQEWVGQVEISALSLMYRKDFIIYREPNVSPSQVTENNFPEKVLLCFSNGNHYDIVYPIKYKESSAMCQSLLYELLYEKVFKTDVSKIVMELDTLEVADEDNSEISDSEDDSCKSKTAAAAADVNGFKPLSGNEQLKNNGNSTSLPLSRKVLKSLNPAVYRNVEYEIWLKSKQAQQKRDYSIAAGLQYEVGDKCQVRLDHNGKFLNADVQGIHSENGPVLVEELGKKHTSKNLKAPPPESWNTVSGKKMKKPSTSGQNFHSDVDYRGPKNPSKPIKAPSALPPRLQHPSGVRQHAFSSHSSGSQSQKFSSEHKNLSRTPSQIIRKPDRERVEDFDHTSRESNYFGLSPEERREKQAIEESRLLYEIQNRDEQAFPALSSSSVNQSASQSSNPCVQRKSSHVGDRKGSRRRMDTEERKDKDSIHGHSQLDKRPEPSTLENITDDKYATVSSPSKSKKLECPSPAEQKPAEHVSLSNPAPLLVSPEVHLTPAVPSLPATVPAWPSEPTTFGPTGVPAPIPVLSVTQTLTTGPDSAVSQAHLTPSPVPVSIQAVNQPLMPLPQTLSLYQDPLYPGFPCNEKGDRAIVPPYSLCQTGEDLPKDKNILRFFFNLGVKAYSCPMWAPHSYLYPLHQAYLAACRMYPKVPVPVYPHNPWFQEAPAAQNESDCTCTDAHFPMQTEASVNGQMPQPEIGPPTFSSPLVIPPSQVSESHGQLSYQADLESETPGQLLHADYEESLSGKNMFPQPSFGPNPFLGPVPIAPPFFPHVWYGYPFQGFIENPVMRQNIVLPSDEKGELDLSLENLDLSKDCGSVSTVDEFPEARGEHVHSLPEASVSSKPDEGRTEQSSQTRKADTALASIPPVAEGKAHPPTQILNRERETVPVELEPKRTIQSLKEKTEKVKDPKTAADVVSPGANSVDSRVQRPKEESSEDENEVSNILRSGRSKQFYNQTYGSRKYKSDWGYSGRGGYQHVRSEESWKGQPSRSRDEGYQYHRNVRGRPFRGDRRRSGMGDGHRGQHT

[5] = molecular target: T5, MBP-OTUD4 (maltose-binding protein-tagged OTUD4) (human) (UniProt Q01804); test: pull-down; MBP-OTUD4 held on amylose resin (4 °C, 12 h, washed), then incubated with bacterial lysate containing FLAG-TAK1 at 4 °C for 2 h; Western blot; only the target purified
T5 sequence: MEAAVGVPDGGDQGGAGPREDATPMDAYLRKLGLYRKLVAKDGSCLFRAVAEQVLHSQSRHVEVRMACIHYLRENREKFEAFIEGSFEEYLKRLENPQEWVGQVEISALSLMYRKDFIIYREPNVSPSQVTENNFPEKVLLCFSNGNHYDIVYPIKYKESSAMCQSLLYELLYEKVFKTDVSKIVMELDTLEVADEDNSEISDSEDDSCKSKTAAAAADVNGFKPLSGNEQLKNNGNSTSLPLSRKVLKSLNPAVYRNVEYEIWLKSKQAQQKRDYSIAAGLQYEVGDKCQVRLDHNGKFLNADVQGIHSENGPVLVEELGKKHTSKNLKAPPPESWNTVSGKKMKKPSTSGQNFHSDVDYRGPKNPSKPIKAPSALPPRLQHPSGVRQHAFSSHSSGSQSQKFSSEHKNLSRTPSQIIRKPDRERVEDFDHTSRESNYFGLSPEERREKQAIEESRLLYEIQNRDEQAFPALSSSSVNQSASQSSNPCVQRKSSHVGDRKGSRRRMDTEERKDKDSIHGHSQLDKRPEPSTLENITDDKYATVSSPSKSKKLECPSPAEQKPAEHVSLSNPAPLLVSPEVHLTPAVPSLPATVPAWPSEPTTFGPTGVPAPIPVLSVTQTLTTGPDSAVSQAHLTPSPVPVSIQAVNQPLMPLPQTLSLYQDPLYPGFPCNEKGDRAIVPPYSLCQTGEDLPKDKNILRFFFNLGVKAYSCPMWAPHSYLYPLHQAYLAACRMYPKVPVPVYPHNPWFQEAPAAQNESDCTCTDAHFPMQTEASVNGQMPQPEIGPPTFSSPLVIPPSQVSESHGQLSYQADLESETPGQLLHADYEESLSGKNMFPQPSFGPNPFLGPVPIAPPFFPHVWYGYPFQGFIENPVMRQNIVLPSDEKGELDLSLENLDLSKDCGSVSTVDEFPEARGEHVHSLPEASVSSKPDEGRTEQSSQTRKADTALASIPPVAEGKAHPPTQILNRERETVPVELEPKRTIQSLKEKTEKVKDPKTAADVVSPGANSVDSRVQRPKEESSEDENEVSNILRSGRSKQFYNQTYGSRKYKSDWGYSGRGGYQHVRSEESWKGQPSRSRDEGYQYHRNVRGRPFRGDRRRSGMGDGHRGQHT

B1: HA-TAK1 (protein, UniProt O43318 1-606)
chain: MSTASAASSSSSSSAGEMIEAPSQVLNFEEIDYKEIEVEEVVGRGAFGVVCKAKWRAKDVAIKQIESESERKAFIVELRQLSRVNHPNIVKLYGACLNPVCLVMEYAEGGSLYNVLHGAEPLPYYTAAHAMSWCLQCSQGVAYLHSMQPKALIHRDLKPPNLLLVAGGTVLKICDFGTACDIQTHMTNNKGSAAWMAPEVFEGSNYSEKCDVFSWGIILWEVITRRKPFDEIGGPAFRIMWAVHNGTRPPLIKNLPKPIESLMTRCWSKDPSQRPSMEEIVKIMTHLMRYFPGADEPLQYPCQYSDEGQSNSATSTGSFMDIASTNTSNKSDTNMEQVPATNDTIKRLESKLLKNQAKQQSESGRLSLGASRGSSVESLPPTSEGKRMSADMSEIEARIAATTAYSKPKRGHRKTASFGNILDVPEIVISGNGQPRRRSIQDLTVTGTEPGQVSSRSSSPSVRMITTSGPTSEKPTRSHPWTPDDSTDTNGSDNSIPMAYLTLDHQLQPLAPCPNSKESMAVFEQHCKMAQEYMKVQTEIALLLQRKQELVAELDQDEKDQQNTSRLVQEHKKLLDENKSLSTYYQQCKKQLEVIRSQQQKRQGTS
B1 was tested, and the binding [1] was “binds”, the binding [2] was “binds” and the binding [3] was “binds”.

B2: endogenous TAK1 in H1299 NSCLC cells (protein, UniProt O43318 1-606)
chain: MSTASAASSSSSSSAGEMIEAPSQVLNFEEIDYKEIEVEEVVGRGAFGVVCKAKWRAKDVAIKQIESESERKAFIVELRQLSRVNHPNIVKLYGACLNPVCLVMEYAEGGSLYNVLHGAEPLPYYTAAHAMSWCLQCSQGVAYLHSMQPKALIHRDLKPPNLLLVAGGTVLKICDFGTACDIQTHMTNNKGSAAWMAPEVFEGSNYSEKCDVFSWGIILWEVITRRKPFDEIGGPAFRIMWAVHNGTRPPLIKNLPKPIESLMTRCWSKDPSQRPSMEEIVKIMTHLMRYFPGADEPLQYPCQYSDEGQSNSATSTGSFMDIASTNTSNKSDTNMEQVPATNDTIKRLESKLLKNQAKQQSESGRLSLGASRGSSVESLPPTSEGKRMSADMSEIEARIAATTAYSKPKRGHRKTASFGNILDVPEIVISGNGQPRRRSIQDLTVTGTEPGQVSSRSSSPSVRMITTSGPTSEKPTRSHPWTPDDSTDTNGSDNSIPMAYLTLDHQLQPLAPCPNSKESMAVFEQHCKMAQEYMKVQTEIALLLQRKQELVAELDQDEKDQQNTSRLVQEHKKLLDENKSLSTYYQQCKKQLEVIRSQQQKRQGTS
With B2 the binding [4] was “binds”.

B3: FLAG-TAK1 (E. coli) (protein, UniProt O43318 1-606)
chain: MSTASAASSSSSSSAGEMIEAPSQVLNFEEIDYKEIEVEEVVGRGAFGVVCKAKWRAKDVAIKQIESESERKAFIVELRQLSRVNHPNIVKLYGACLNPVCLVMEYAEGGSLYNVLHGAEPLPYYTAAHAMSWCLQCSQGVAYLHSMQPKALIHRDLKPPNLLLVAGGTVLKICDFGTACDIQTHMTNNKGSAAWMAPEVFEGSNYSEKCDVFSWGIILWEVITRRKPFDEIGGPAFRIMWAVHNGTRPPLIKNLPKPIESLMTRCWSKDPSQRPSMEEIVKIMTHLMRYFPGADEPLQYPCQYSDEGQSNSATSTGSFMDIASTNTSNKSDTNMEQVPATNDTIKRLESKLLKNQAKQQSESGRLSLGASRGSSVESLPPTSEGKRMSADMSEIEARIAATTAYSKPKRGHRKTASFGNILDVPEIVISGNGQPRRRSIQDLTVTGTEPGQVSSRSSSPSVRMITTSGPTSEKPTRSHPWTPDDSTDTNGSDNSIPMAYLTLDHQLQPLAPCPNSKESMAVFEQHCKMAQEYMKVQTEIALLLQRKQELVAELDQDEKDQQNTSRLVQEHKKLLDENKSLSTYYQQCKKQLEVIRSQQQKRQGTS
With B3 the binding [5] was “binds”.
